Experimental data from article PMC11361369.
These are yes or no findings as the source states them, for the method shown. In cells and extracts the contact can be indirect. Some binding calls cover weakened binding; strength is not graded here. For part of these data: Sequences can lack the tags named with a protein.

Amino acid sequences for entries named in this document (tags omitted).
UniProt Q61103: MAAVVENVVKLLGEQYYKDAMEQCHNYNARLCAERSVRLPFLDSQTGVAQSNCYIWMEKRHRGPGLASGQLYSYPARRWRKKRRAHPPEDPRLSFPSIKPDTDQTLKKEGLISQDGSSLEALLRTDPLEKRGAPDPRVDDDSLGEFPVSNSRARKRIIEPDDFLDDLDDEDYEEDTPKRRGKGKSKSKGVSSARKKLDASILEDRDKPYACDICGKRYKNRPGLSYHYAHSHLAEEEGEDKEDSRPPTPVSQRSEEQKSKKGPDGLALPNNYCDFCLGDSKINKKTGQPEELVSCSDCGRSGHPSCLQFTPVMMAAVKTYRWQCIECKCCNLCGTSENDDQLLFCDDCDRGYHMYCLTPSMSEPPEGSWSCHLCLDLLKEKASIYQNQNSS
UniProt E9Q7E2: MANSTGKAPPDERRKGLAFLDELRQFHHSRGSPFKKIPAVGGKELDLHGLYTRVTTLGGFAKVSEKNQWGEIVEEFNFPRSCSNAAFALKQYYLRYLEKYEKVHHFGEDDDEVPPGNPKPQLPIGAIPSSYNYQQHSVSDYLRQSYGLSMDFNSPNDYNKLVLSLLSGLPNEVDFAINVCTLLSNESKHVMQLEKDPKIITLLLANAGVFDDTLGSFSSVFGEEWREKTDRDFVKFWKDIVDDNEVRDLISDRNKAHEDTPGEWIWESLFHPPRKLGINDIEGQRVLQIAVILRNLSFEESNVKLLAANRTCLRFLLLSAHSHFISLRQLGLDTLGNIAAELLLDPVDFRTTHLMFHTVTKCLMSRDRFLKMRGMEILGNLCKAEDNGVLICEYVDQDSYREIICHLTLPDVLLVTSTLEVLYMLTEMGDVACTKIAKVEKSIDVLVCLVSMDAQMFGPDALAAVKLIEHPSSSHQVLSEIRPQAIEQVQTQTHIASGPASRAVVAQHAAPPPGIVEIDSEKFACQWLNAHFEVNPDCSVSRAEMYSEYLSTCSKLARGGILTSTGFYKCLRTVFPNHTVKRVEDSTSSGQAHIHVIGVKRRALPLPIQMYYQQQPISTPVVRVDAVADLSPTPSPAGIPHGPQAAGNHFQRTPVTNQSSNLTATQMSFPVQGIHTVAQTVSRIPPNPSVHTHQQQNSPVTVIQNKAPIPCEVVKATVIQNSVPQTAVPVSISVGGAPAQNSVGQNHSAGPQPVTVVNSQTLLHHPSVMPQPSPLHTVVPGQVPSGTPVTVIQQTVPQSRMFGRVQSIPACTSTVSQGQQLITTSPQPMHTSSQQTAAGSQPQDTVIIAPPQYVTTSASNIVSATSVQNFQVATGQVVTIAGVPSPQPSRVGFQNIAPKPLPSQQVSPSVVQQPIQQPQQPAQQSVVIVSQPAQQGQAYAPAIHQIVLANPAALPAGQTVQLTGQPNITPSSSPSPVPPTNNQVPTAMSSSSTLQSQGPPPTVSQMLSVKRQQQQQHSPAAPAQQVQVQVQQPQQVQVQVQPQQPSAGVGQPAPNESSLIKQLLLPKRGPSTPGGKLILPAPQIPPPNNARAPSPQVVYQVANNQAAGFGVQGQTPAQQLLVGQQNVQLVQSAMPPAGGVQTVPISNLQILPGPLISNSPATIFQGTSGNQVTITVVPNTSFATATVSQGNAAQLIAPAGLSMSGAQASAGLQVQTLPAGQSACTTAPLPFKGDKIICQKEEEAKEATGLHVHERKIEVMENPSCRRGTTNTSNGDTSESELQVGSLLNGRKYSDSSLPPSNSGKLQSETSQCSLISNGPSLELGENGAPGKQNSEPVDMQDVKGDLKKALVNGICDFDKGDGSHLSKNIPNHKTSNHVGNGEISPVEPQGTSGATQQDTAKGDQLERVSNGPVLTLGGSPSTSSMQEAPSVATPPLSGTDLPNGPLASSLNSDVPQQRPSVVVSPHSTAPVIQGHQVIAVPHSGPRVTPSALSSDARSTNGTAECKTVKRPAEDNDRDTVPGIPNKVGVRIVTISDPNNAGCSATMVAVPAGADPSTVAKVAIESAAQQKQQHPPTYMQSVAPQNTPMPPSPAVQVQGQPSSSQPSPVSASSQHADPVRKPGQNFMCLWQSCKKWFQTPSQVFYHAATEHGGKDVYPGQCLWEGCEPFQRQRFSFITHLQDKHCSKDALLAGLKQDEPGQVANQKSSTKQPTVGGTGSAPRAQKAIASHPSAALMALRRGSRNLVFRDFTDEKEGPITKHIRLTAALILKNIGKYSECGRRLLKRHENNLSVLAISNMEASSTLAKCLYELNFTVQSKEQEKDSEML
UniProt P97496: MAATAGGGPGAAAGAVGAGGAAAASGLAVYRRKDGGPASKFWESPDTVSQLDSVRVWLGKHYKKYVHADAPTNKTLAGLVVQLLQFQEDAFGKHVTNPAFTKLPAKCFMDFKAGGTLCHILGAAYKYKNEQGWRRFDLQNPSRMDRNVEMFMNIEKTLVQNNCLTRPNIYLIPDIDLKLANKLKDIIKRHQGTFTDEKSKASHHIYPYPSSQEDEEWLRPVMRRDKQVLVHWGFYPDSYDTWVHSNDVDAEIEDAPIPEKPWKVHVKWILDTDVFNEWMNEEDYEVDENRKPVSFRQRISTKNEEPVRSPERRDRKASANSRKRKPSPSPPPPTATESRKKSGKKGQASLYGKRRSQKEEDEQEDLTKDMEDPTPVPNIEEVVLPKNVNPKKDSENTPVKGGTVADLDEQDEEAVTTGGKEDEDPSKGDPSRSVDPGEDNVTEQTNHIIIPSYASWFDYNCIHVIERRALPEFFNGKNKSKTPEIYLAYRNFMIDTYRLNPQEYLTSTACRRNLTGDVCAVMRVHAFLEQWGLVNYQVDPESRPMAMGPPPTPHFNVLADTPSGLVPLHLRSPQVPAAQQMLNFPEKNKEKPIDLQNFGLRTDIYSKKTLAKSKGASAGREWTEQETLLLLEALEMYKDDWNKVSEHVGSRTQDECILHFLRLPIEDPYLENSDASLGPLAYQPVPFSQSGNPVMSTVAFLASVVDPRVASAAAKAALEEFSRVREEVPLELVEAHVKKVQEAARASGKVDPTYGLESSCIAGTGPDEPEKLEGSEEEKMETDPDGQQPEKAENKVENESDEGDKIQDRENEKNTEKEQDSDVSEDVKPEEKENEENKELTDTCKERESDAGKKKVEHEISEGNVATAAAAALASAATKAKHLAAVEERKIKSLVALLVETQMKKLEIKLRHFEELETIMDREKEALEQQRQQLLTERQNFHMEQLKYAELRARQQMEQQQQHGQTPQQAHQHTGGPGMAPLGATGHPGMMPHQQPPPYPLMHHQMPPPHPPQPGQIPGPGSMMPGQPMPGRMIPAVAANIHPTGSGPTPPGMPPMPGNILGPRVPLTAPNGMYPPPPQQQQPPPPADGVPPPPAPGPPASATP
UniProt Q3TKT4: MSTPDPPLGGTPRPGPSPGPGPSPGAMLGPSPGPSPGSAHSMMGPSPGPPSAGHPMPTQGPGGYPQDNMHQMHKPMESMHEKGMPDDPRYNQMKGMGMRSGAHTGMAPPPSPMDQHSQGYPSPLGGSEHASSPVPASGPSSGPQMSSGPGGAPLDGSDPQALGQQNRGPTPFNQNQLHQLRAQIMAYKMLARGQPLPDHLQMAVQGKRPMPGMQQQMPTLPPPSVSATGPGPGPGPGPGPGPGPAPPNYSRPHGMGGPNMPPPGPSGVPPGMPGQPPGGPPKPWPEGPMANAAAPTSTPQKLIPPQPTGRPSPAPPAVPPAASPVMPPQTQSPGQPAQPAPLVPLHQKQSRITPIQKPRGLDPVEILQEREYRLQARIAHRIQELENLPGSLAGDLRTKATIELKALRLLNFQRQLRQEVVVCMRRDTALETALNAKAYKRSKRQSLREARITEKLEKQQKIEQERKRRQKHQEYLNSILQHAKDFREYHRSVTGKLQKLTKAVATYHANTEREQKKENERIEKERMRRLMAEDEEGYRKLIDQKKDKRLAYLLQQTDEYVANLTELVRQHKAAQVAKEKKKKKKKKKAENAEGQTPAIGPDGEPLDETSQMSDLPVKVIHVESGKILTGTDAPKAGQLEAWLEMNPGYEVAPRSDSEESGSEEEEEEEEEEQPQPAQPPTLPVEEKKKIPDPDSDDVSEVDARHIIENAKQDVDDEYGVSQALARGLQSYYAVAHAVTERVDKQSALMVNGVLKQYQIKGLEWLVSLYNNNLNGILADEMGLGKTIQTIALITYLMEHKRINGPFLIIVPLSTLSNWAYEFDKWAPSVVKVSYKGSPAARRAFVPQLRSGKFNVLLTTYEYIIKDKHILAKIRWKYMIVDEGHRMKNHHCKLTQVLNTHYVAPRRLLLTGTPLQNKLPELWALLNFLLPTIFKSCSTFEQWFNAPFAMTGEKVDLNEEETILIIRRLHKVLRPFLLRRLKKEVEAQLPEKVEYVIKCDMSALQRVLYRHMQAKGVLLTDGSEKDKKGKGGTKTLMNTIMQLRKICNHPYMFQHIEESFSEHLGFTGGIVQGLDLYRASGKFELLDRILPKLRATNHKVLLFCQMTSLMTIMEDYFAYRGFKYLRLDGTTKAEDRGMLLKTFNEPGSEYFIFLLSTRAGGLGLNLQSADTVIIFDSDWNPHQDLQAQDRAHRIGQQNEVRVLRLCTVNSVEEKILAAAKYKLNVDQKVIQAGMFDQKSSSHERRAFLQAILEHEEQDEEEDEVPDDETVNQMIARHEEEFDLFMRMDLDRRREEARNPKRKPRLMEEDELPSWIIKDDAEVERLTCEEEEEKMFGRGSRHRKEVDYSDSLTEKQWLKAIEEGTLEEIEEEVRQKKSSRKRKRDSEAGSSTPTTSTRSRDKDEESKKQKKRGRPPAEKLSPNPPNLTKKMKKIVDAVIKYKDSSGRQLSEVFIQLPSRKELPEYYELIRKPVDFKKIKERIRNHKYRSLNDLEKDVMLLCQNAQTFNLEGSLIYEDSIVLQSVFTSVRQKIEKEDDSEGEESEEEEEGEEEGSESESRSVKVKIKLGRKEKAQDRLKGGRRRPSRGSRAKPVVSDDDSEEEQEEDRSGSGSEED

Columns and labels:
PHF10-2xFkbp-V5 = biological target: T1, PHF10-2xFkbp-V5 (UniProt Q9D8M7); experiment: co-IP; mouse anti-V5 (E9H8O) on protein G beads, mESC ammonium sulfate protein extract in IP buffer (20 mM Hepes pH 7.5, 150 mM KCl, 0.1% Triton X-100), overnight at 4°C; Western blot for BAF155 and BRG1
T1 sequence: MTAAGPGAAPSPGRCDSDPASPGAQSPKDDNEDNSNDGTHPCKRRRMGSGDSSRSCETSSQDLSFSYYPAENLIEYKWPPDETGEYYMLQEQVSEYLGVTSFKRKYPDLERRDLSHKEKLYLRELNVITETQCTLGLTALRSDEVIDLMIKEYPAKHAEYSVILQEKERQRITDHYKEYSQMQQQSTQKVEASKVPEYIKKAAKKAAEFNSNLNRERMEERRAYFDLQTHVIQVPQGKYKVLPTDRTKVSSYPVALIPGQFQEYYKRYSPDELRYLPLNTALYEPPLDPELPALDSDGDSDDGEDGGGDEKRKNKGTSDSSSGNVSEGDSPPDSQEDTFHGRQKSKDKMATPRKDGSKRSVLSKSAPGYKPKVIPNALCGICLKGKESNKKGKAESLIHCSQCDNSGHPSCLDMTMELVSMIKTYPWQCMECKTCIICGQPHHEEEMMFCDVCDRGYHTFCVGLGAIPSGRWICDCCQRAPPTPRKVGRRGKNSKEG

BRD9-2xFkbp-V5 = biological target: T2, BRD9-2xFkbp-V5 (UniProt Q3UQU0); experiment: as above
T2 sequence: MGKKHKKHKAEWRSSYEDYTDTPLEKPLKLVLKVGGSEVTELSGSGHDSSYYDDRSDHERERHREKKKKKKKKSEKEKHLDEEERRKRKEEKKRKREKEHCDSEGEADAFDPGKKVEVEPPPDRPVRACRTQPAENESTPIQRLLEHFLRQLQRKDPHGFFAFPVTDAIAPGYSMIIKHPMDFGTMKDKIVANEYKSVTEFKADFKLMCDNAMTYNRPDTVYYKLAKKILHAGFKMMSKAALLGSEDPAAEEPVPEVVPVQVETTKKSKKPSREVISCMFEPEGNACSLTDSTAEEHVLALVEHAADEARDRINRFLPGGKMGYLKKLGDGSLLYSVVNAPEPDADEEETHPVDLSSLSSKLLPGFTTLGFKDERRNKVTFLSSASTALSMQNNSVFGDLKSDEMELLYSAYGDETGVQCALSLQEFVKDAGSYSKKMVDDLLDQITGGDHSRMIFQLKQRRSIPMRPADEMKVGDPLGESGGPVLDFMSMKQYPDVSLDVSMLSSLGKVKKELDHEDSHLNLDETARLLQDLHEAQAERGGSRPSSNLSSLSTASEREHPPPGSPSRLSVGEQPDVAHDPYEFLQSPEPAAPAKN

DPF2-2xFkbp-V5 = DPF2-2xFkbp-V5 (UniProt Q61103); experiment: as above
[1] = biological target: ARID2 (mouse (endogenous in mESCs)) (UniProt E9Q7E2); experiment: co-IP; rabbit anti-ARID2 on protein G beads, protein extract of mESCs expressing PHF10-2xFkbp-V5 in IP buffer (20 mM Hepes pH 7.5, 150 mM KCl, 0.1% Triton X-100), overnight at 4°C; Western blot for BRG1, BAF155 and V5

Measured: binding

BAF155 (SMARCC1) (from UniProt P97496 1-1104)
binds: all assays above

BRG1 (SMARCA4) (from UniProt Q3TKT4 1-1613)
binds: all assays above

B1: PHF10-2xFkbp-V5 (protein, UniProt Q9D8M7 1-497)
chain: MTAAGPGAAPSPGRCDSDPASPGAQSPKDDNEDNSNDGTHPCKRRRMGSGDSSRSCETSSQDLSFSYYPAENLIEYKWPPDETGEYYMLQEQVSEYLGVTSFKRKYPDLERRDLSHKEKLYLRELNVITETQCTLGLTALRSDEVIDLMIKEYPAKHAEYSVILQEKERQRITDHYKEYSQMQQQSTQKVEASKVPEYIKKAAKKAAEFNSNLNRERMEERRAYFDLQTHVIQVPQGKYKVLPTDRTKVSSYPVALIPGQFQEYYKRYSPDELRYLPLNTALYEPPLDPELPALDSDGDSDDGEDGGGDEKRKNKGTSDSSSGNVSEGDSPPDSQEDTFHGRQKSKDKMATPRKDGSKRSVLSKSAPGYKPKVIPNALCGICLKGKESNKKGKAESLIHCSQCDNSGHPSCLDMTMELVSMIKTYPWQCMECKTCIICGQPHHEEEMMFCDVCDRGYHTFCVGLGAIPSGRWICDCCQRAPPTPRKVGRRGKNSKEG
binds: [1]
